From patent publication US20220235395 come the findings set out here.

For some of these results: Where a protein sequence is shown, tags need not be part of it. The exact form of at least one protein or probe is not confirmed. For some of these results: A negative result means that nothing was seen under these conditions. For some of these results: The comparison behind a weaker result is the experiment's own reference, which may not be listed here.

For series [1], the system named is T1, R2 reverse transcriptase P2 variant (N-terminal truncation).
T1 sequence: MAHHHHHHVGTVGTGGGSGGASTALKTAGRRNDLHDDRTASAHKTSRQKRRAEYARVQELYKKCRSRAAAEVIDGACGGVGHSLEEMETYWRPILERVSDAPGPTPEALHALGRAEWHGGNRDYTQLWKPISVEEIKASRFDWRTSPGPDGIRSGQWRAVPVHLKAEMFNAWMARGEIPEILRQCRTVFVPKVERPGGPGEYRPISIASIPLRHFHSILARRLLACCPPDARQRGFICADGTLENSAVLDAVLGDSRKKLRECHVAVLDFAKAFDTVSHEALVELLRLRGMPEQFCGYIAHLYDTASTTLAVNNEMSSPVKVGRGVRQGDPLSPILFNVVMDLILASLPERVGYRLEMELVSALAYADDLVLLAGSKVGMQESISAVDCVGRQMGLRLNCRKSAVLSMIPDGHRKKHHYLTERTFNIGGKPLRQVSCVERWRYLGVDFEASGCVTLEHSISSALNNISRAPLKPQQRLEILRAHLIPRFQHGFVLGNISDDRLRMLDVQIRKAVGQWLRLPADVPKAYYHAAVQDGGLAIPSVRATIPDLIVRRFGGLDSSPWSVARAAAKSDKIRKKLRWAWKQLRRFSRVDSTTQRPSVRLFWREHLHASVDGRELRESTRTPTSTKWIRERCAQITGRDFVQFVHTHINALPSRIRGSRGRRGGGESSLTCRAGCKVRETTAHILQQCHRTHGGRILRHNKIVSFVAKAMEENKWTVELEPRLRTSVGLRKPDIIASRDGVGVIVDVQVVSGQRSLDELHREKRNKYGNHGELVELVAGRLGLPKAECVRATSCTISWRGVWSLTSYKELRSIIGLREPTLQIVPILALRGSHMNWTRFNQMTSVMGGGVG
Nature of the series: activity assay. The following applies: purified recombinant protein, protein details: His6, E. coli BL21(DE3), pET45b.

The target of series [2] is MMLV reverse transcriptase (Moloney murine leukemia virus) (UniProt P03355). The series can be described thus: activity assay. Conditions: purified recombinant protein, protein details: Clontech.
Setting [3] is: conversion with P173 acceptor, 30 C, qPCR.

“GGAUCCUCUAGAGUCGACCUGCAGGCAUGCAAGCUUGGCACUGGCCGUCGUUUUACAACGUCGUGACUGGGAAAACCCUGGCGUUACCCAACUUAAUCGCCUUGCAGCACAUCCCCCUUUCGCCAGCUGGCGUAAUAGCGAAGAGGCCCGCACCGAUCGCCCUUCCCAACAGUUGCGCAGCCUGAAUGGCGAAUGGC / GCCATTCGCCATTCAGGCTGC [200 bp RNA/P170 primer (Example 6)]”: the “activity on this sequence” value in series [1] (setting [3]) was “active”.
With “GGAUCCUCUAGAGUCGACCUGCAGGCAUGCAAGCUUGGCACUGGCCGUCGUUUUCAACGUCGUGACUGGGAAAACCCUGGCGUUACCCAACUUAAUCGCCUUGCAGCACAUCCCCCUUUCGCCAGCUGGCGUAAUAGCGAAGAGGCCCGCACCGAUCGCCCUUCCCAACAGUUGCGCAGCCUGAAUGGCGAAUGGC / CACGACGTTGTAAAACGACGGC [200 bp RNA/P187 primer]”, the “activity on this sequence” value in series [1] (template copied and jump to P173 acceptor, 30 C, PCR readout) is “active”.
For “CAGUCAGUCAGUCAGUCAGUGCCAAAUGCCUCGUCAUC [P173 RNA acceptor]”, in series [1] (template jumping to P173, optimum 300 mM NaCl, 5 mM MgCl2), the “activity on this sequence” value is on record as “active”.
As for “GGAUCCUCUAGAGUCGACCUGCAGGCAUGCAAGCUUGGCACUGGCCGUCGUUUUACAACGUCGUGACUGGGAAAACCCUGGCGUUACCCAACUUAAUCGCCUUGCAGCACAUCCCCCUUUCGCCAGCUGGCGUAAUAGCGAAGAGGCCCGCACCGAUCGCCCUUCCCAACAGUUGCGCAGCCUGAAUGGCGAAUGGCGCCUGAUGCGGUAUUUUCUCCUUACGCAUCUGUGCGGUAUUUCACACCGCAUAUGGUGCACUCUCAGUACAAUCUGCUCUGAUGCCGCAUAGUUAAGCCAGCCCCGACACCCGCCAACACCCGCUGACGCGCCCUGACGGGCUUGUCUGCUCCCGGCAUCCGCUUACAGACAAGCUGUGACCGUCUCCGGGAGCUGCAUGUGUCAGAGGUUUUCACCGUCAUCACCGAAACGCGCGAGACGAAAGGGCCUCGUGAUACGCCUAUUUUUAUAGGUUAAUGUCAUGAUAAUAAUGGUUUCUUAGACGUCAGGUGGCACUUUUCGGGGAAAUGUGCGCGGAACCCCUAUUUGUUUAUUUUUCUAAAUACAUUCAAAUAUGUAUCCGCUCAUGAGACAAUAACCCUG / CAGGGTTATTGTCTCATGAGCG [600 bp RNA/P172 primer (Example 6)]”, in series [1] (setting [3]), the “activity on this sequence” value is “active”.
With “GGAUCCUCUAGAGUCGACCUGCAGGCAUGCAAGCUUGGCACUGGCCGUCGUUUUACAACGUCGUGACUGGGAAAACCCUGGCGUUACCCAACUUAAUCGCCUUGCAGCACAUCCCCCUUUCGCCAGCUGGCGUAAUAGCGAAGAGGCCCGCACCGAUCGCCCUUCCCAACAGUUGCGCAGCCUGAAUGGCGAAUGGCGCCUGAUGCGGUAUUUUCUCCUUACGCAUCUGUGCGGUAUUUCACACCGCAUAUGGUGCACUCUCAGUACAAUCUGCUCUGAUGCCGCAUAGUUAAGCCAGCCCCGACACCCGCCAACACCCGCUGACGCGCCCUGACGGGCUUGUCUGCUCCCGGCAUCCGCUUACAGACAAGCUGUGACCGUCUCCGGGAGCUGCAUGUGUCAGAGGUUUUCACCGUCAUCACCGAAACGCGCGAGACGAAAGGGCCUCGUGAUACGCCUAUUUUUAUAGGUUAAUGUCAUGAUAAUAAUGGUUUCUUAGACGUCAGGUGGCACUUUUCGGGGAAAUGUGCGCGGAACCCCUAUUUGUUUAUUUUUCUAAAUACAUUCAAAUAUGUAUCCGCUCAUGAGACAAUAACCCUG / CAGGGTTATTGTCTCATGAGCG [600 bp RNA/P172 primer (Example 5)]”, the “activity on this sequence” value in series [2] (lower conversion than R2 with P181 TSO, 42 C, qPCR) is “less active”.
In the case of “AATGATACGGCGACCACCGAGATCTACACTCTTTCCCTACACGACGCTCTTCCGATCT / AGATCGGAAGAGCGTCGTGTAG [P188 DNA template/P189 DNA primer]”, the “activity on this sequence” value in series [1] (extension on DNA template, 30 C 1 h) was “active”.
For “CAGUCAGUCAGUCAGUCAGUGCCAAAUGCCUCGUCAUC / TGATGACGAGGCATTTGGC [P173 RNA template/P174 DNA primer]”, the “activity on this sequence” value is recorded as “active” in series [2] (primer extension, 42 C 1 h, label: 5' 6-FAM on primer) and “active” in series [1] (extension optimum at 300 mM NaCl, 5 mM MgCl2, pH 7.5, room temperature, label: 5' 6-FAM on primer).
For “GTTAATAACGAAATGAGCAGCCGGG [P181 TSO acceptor]”, the “activity on this sequence” value in series [2] (last three G are ribonucleotides (rGrGrG), no apparent template jumping product, 42 C) is recorded as “not active”.
For the sequence “AATGATACGGCGACCACCGAGATCTACACTCTTTCCCTACACGACGCTCTTCCGATCT [P188 DNA oligonucleotide acceptor]”, the “activity on this sequence” value in series [1] (template jumping to DNA P188, 30 C, single-stranded DNA) is recorded as “active”.
